Values quoted from earlier work, collected in patent publication US7001748B2, “Methods of making polyketides using hybrid polyketide synthases” (The Board of Trustees of the Leland Stanford Junior …, priority 1999, dated 2006).
Some results were stated once for a whole list of compounds, not compound by compound. At least one structure is not confirmed: it was looked up by name or label, or the drawing left a doubt.

Tested on: (5)M2+TE, (5)M5+TE, and (5)M6+TE
Conditions: below detectable limits; cited from earlier work

SMILES | elongation rate, NAC thioester
CCC(O)C(C)C(=O)SCCNC(C)=O (centres unmarked) [2c] | < 0.01 min⁻¹
CCC(O)C(C)C(=O)SCCNC(C)=O (centres unmarked) [2d] | < 0.01 min⁻¹
